Drawing on PubChem BioAssay AID1307 (SRMLSC, 2008), this text covers max inhibition for 78 compounds.

Molecules are shown by their SMILES. Screen size: about 1,200 compounds; fewer than 10 were called active.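 Rule for the calls: active = inhibition reaching a set limit at one or more tested concentrations; inactive = inhibition under that limit at every dose.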 This is one part of the list. Entries with a potency or affinity are not part of this list.

This experiment is described as follows: yeast RAM network inhibitors, dose response, S. cerevisiae (AID 1307).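 Note: 0% = DMSO vehicle wells and 100% = 10 µM 1-NA-PP1 control; higher inhibition means more yeast growth since RAM block rescues cells from 5-FOA.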 The following applies: S. cerevisiae RAM network URA3 reporter, 5-FOA growth OD615, stronger effect = higher value, yeast express analog-sensitive mutant Cbk1 kinase; at 100 µM unless noted.
With `COC(=O)c1c(NC(=O)c2ccccc2)sc(Cc2ccccc2)c1C`, the max inhibition is inactive: 5.58% [at 50 µM].

In the case of `O=C(NCCc1ccccc1)c1c(O)c2cccc3c2n(c1=O)CC3`, the max inhibition is inactive: 2.92% [at 50 µM].

`COn1c(SCc2ccccc2)nc2ccccc2c1=O`: the max inhibition is inactive: 2.79% [at 1.563 µM].

As to `COc1ccc2c(C)cc(SCC(=O)c3ccc4c(c3)OCO4)nc2c1`, the max inhibition was inactive: 4.01%.

With `O=C(OCc1ccccc1F)c1ccc2c(c1)-c1ccccc1C2=O`, the max inhibition is inactive: 8.99% [at 50 µM].

Consider `CCOc1ccc2nc3c(cc2c1)CN(CCOC)C(=NCCOC)S3`, for which the max inhibition is inactive: 4.45%.

For `O=S(=O)(c1ccccc1F)N(Cc1ccco1)Cc1nnc(-c2ccccc2Br)o1`, the max inhibition is inactive: 2.49% [at 1.563 µM].

`CCCOc1ccc(-c2nc(OCC)c3ccccc3n2)cc1`: the max inhibition was inactive: 5.78% [at 50 µM].

Turning to `COc1cc(/C=C/C(=O)OCC(=O)Nc2ccccc2Sc2ccc(Cl)cc2)ccc1O`, the max inhibition was inactive: 3.88%.

Regarding `COc1ccc(OC)c(NC(=O)CSCc2cnn(-c3ccccc3)c2-n2cccc2)c1`, the max inhibition is inactive: 1.79% [at 3.125 µM].

Regarding `COc1ccc(C(=O)/C=C/c2ccc(OC)c(COc3ccccc3F)c2)cc1`, the max inhibition was inactive: 3.26% [at 12.5 µM].

Turning to `COCCOC(=O)c1c(C)oc2ccc(OC(=O)c3c(OC)cccc3OC)cc12`, the max inhibition was inactive: 2.82% [at 0.391 µM].

For `C=CCn1c(SCc2csc(C)n2)nc2sc3c(c2c1=O)CCC(C)C3` (stereo not drawn), the max inhibition was inactive: 2.88% [at 50 µM].

`Cc1ccc(CSCCNC(=O)c2ccc(N(C)S(=O)(=O)c3ccccc3)cc2)cc1`: the max inhibition is inactive: 3.36% [at 50 µM].

For the compound `O=C(c1oc2ccccc2c1CSCc1ccccc1)N1CCN(c2ncccn2)CC1`, the max inhibition was inactive: 2.29% [at 0.782 µM].

In the case of `COc1ccccc1-c1ccc(SCc2ccc([N+](=O)[O-])cc2)nn1`, the max inhibition was inactive: 2.51% [at 3.125 µM].

For the compound `C=CCN(c1ccccc1Cl)S(=O)(=O)c1cccc(C(=O)NCCc2ccc(OC)cc2)c1`, the max inhibition was inactive: 2.05% [at 12.5 µM].

For `COc1ccc(/C=C2\SC(=O)N(CCC(=O)Nc3ccccc3)C2=O)cc1OC`, the max inhibition was inactive: 3.41%.

In the case of `COc1cc(NS(=O)(=O)c2ccc(Nc3nc(-c4ccccc4)cs3)cc2)nc(OC)n1`, the max inhibition is inactive: 22%.

As to `CN(CCOc1ccccc1)S(=O)(=O)c1ccc2oc3ccccc3c2c1`, the max inhibition is inactive: 3.54% [at 0.391 µM].

Turning to `Cc1ccc(C(=O)C(OC(=O)COc2ccccc2C)c2ccccc2)cc1` (stereo not drawn), the max inhibition is inactive: 3.49% [at 50 µM].

Regarding `COc1ccc(/C=N/OCC(=O)NC(c2ccccc2)c2ccccc2)c(OC)c1`, the max inhibition is inactive: 3.42%.

Turning to `COc1ccc(CCNC(=O)c2ccc(-c3ccc([N+](=O)[O-])cc3Cl)o2)cc1`, the max inhibition is inactive: 4.1%.

Take `COc1ccccc1-c1cc(C(F)(F)F)nc(N2CCN(c3ccccc3)CC2)n1`: the max inhibition was inactive: 4.49%.

Regarding `Cc1cc(OCc2nnc(SCC(=O)OC3CCCCC3)o2)ccc1Cl`, the max inhibition is inactive: 2.07% [at 0.391 µM].

`COc1ccc(C(=O)COC(=O)C(CCSC)NS(=O)(=O)c2ccc(Cl)cc2)cc1` (stereo not drawn): the max inhibition was inactive: 2.78% [at 25 µM].

As for `O=C(CSc1nnc(-c2cccc(S(=O)(=O)N3CCCCC3)c2)o1)NCCC1=CCCCC1`, the max inhibition is inactive: 14%.

`COc1ccc(CNc2oc(Cc3cccc4ccccc34)nc2C#N)cc1`: the max inhibition was inactive: 2.77% [at 0.782 µM].

For the compound `COc1cccc(-c2cc(C(=O)Nc3ccn(Cc4ccc(C)cc4)n3)no2)c1`, the max inhibition is inactive: 3.29%.

On to `Cc1ccc(C(=O)CSc2nnc(COc3cc(C)cc(C)c3)o2)cc1`, for which the max inhibition was inactive: 4.29% [at 25 µM].

As to `Cc1cccc(/C=C\c2nc3ccccc3c(=O)[nH]2)c1`, the max inhibition was inactive: 4.62%.

Turning to `N#Cc1cc(-c2ccc(Cl)cc2)cnc1Sc1ccc(F)cc1`, the max inhibition was inactive: 2.38% [at 25 µM].

On to `CCS(=O)(=O)c1ccc(-c2csc(-c3ccc(Cl)cc3)n2)c(Cl)c1Cl`, for which the max inhibition was inactive: 1.92% [at 50 µM].

Regarding `Nc1nc(-c2ccccc2)c(N=Nc2cccnc2)s1`, the max inhibition is inactive: 4.8%.

Regarding `O=C(CCC(=O)c1ccc(Oc2ccccc2)cc1)Nc1cccc(Cl)c1Cl`, the max inhibition is inactive: 3.23% [at 25 µM].

With `COc1cccc(NC(=O)CSc2nnc(COc3ccc4c(c3)CCCC4)o2)c1`, the max inhibition was inactive: 2.82%.

Regarding `Fc1ccc(N2CCN(c3nc(-c4ccco4)cc(C(F)(F)F)n3)CC2)cc1`, the max inhibition is inactive: 3.18% [at 0.782 µM].

Consider `COc1ccc(-n2nnc3c(SCC(=O)OCc4ccccc4)ncnc32)cc1`, for which the max inhibition was inactive: 2.88% [at 50 µM].

Regarding `O=C(CSc1cccc(C(F)(F)F)c1)Nc1cc(S(=O)(=O)N2CCCC2)ccc1Cl`, the max inhibition was inactive: 2.33% [at 0.782 µM].

Consider `COc1ccc(C)cc1N1C(=N)/C(=C2/Nc3ccccc3S2)C(c2ccccc2)C1=O` (stereo not drawn), for which the max inhibition was inactive: 13.5%.

As for `CCOC(=O)Cc1csc(NC(=O)NC2(C(F)(F)F)Oc3ccccc3O2)n1`, the max inhibition is inactive: 1.09% [at 0.782 µM].

Regarding `CCCOc1ccc(CC(=O)NNC(=S)Nc2ccccc2)cc1Br`, the max inhibition was inactive: 2.27% [at 6.25 µM].

As to `Cc1ccc(CNC(=O)CNC(=S)N(Cc2ccccc2)Cc2ccccc2F)cc1`, the max inhibition is inactive: 3.76% [at 12.5 µM].

Consider `CC(C)CC1=NN2C(=N)/C(=C\c3coc4ccccc4c3=O)C(=O)N=C2S1`, for which the max inhibition was inactive: 3.4% [at 0.196 µM].

In the case of `CCN=C1S/C(=C\c2cc(Br)ccc2OCC(=O)OCC)C(=O)N1CC`, the max inhibition was inactive: 2.27% [at 3.125 µM].

As for `COc1nc2ccc(C)cc2cc1-c1noc(-c2ccccc2)n1`, the max inhibition was inactive: 3.02% [at 25 µM].

On to `COC(=O)c1ccccc1NC(=O)c1cccc(COc2ccccc2Cl)c1`, for which the max inhibition was inactive: 5.66%.

For the compound `COc1ccc(/C=C/C(=O)c2sc(-c3ccccc3)nc2C)cc1`, the max inhibition was inactive: 2.67% [at 50 µM].

Turning to `CCC(C)(C)c1ccc(Oc2ccc(NC(=O)COC(=O)C3=COCCO3)cc2)cc1`, the max inhibition was inactive: 3.38% [at 12.5 µM].

As for `O=C(C(Sc1ccccc1)c1ccccc1)N1CCN(c2ccccc2F)CC1` (stereo not drawn), the max inhibition is inactive: 0.48% [setting not given].

With `CCCCOc1ccc(C(=O)N/C(=C\c2ccc(OC)cc2)C(=O)OCc2ccco2)cc1`, the max inhibition is inactive: 3.36% [at 50 µM].

Consider `COc1cccc(CSc2nc3ccccc3cc2C=O)c1`, for which the max inhibition is inactive: 1.68% [at 50 µM].

On to `S=C(c1ccc(-c2ccccc2Cl)o1)N1CCOCC1`, for which the max inhibition is inactive: 2.62% [at 0.196 µM].

For the compound `CCCn1c(=O)c(C(=O)NCc2ccc(OC)c(OC)c2)c(O)c2ccccc21`, the max inhibition was inactive: 1.62%.

With `O=C(CSc1nc2c(cnn2-c2ccccc2)c(=O)[nH]1)N1N=C(c2cccs2)CC1c1ccc(F)cc1` (stereo not drawn), the max inhibition was inactive: 13.5%.

In the case of `COc1ccc(O[C@H]2C=C[C@@H](c3ccccc3)O[C@@H]2CO/N=C/C[C@@H]2C=C[C@H](OC(C)=O)[C@@H](COC(C)=O)O2)cc1`, the max inhibition was inactive: 1.56% [at 0.196 µM].

For `Cc1ccc(O)c(C(=O)/C=C/c2ccc3c(c2)OCCCO3)c1`, the max inhibition is inactive: 2.83%.

Turning to `CCN(CC(O)CON=C1c2ccccc2-c2ccccc21)S(=O)(=O)c1ccc(C)cc1` (stereo not drawn), the max inhibition is inactive: 7.91% [at 50 µM].

Turning to `COCC(C)n1c(SCc2ccc(OC)c(F)c2)nc2ccccc2c1=O` (stereo not drawn), the max inhibition is inactive: 3.92% [at 1.563 µM].

With `CCCCCCCCC(=O)NNC(=O)c1c(O)c2ccccc2n(CC)c1=O`, the max inhibition is inactive: 1.2% [at 3.125 µM].

For `N#C/C(=C\C1=C(N2CCOCC2)C(=C\c2ccccc2)/CC1)C(=O)Nc1ccccc1F`, the max inhibition was inactive: 4.22%.

Take `CCCc1nn(C)c(C(=O)Nc2ccc(C)c(C)c2)c1Cl`: the max inhibition was inactive: 1.06% [at 0.782 µM].

`O=C(c1ccccc1)c1sc(N2CCCCCC2)nc1-c1ccccc1`: the max inhibition is inactive: 2.72%.

Take `Cc1cccc(OCc2nnc(SCC(=O)c3ccccc3)o2)c1`: the max inhibition was inactive: 1.64% [at 6.25 µM].

As to `COc1cc(/C=C(\C#N)c2ccccn2)ccc1OCc1ccc(Cl)cc1`, the max inhibition was inactive: 1.91% [at 6.25 µM].

Regarding `CCOC(=O)c1c(-c2ccccc2)csc1NC(=O)CSc1ccccc1`, the max inhibition was inactive: 4.04%.

For `CCCCCOC(=O)C1C(c2ccccc2)C(C(=O)O)C1c1ccccc1` (stereo not drawn), the max inhibition is inactive: 2.33% [at 25 µM].

`CCOC(=O)CCCSc1nc(-c2ccc3c(c2)OCO3)cc(C(F)(F)F)c1C#N`: the max inhibition is inactive: 3.71% [at 25 µM].

In the case of `Cc1cccc(Nc2nnc(SCC3CCCCO3)s2)c1` (stereo not drawn), the max inhibition was inactive: 4.62% [at 0.196 µM].

With `Cc1c(N=Nc2ccc(N(C)C)cc2)c(=O)n(-c2ccccc2)n1C`, the max inhibition was inactive: 20.4%.

Regarding `O=C(c1cc(COc2ccc(F)cc2Cl)on1)N1CCCC(c2ccccc2)C1` (stereo not drawn), the max inhibition is inactive: 6.3% [at 25 µM].

As to `Cc1ccc(-n2c(SCC(=O)Nc3cccc(S(=O)(=O)NC4=NCCCCC4)c3)nc3ccccc3c2=O)cc1C`, the max inhibition was inactive: 11%.

For `COc1cccc(CNC(=O)CNC(=S)N(Cc2ccccc2)Cc2ccccc2F)c1`, the max inhibition was inactive: 3.12% [at 50 µM].

In the case of `COc1ccc(/C=C/C(=O)Nc2cc(S(=O)(=O)N3CCCCC3)ccc2N2CCCCC2)cc1OC`, the max inhibition was inactive: 15.4%.

Consider `CCOc1ccc(-c2nn(-c3ccccc3)cc2/C=C2\SC(=S)N(Cc3ccco3)C2=O)cc1`, for which the max inhibition was inactive: 5.18%.

Take `CCn1cc(C(=O)OCC(=O)c2ccccc2)c(=O)c2ccc(C)nc21`: the max inhibition is inactive: 6.73% [at 25 µM].

In the case of `CCCCN(CCCC)S(=O)(=O)c1ccc(NS(=O)(=O)c2ccc(NC(C)=O)cc2)cc1`, the max inhibition was inactive: 4.62%.

As to `N#Cc1ccsc1NC(=O)COC(=O)CCCSc1nc2ccccc2s1`, the max inhibition was inactive: 2.77% [at 50 µM].
